# According to the supplement of paper PMC12819154, “High-throughput peptide-centric local stability assay extends protein–ligand identification to membrane proteins, tissues and bacteria” (Nature Structural & Molecular Biology, 2025):
# Protein sequences, listed by entry. Tags and fused reporters are not part of them. Lines headed by an entry give the natural chain unless they say otherwise; changes in a name come on top.
# UniProt Q13946: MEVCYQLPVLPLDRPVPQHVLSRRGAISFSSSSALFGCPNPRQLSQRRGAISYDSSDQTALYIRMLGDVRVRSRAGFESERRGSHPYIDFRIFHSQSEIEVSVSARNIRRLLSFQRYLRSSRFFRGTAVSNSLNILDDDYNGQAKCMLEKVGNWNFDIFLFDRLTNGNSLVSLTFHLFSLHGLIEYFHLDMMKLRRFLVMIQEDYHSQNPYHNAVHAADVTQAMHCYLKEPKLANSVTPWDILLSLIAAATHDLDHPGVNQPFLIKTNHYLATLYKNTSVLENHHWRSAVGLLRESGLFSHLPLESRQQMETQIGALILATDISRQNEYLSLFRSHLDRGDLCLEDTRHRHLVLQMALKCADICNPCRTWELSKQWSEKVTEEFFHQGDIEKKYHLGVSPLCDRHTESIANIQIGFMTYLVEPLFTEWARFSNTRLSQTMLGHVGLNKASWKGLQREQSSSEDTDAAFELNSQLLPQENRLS
# UniProt Q13601: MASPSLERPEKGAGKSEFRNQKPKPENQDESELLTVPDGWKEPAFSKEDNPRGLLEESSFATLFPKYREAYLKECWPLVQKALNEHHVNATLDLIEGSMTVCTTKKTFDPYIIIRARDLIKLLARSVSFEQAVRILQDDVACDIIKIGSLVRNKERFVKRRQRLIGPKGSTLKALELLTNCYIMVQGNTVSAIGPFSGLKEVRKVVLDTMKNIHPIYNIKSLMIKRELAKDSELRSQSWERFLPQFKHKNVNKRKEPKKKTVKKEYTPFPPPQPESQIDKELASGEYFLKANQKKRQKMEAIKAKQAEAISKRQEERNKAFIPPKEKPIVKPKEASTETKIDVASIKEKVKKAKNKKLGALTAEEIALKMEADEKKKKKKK
# UniProt Q13200: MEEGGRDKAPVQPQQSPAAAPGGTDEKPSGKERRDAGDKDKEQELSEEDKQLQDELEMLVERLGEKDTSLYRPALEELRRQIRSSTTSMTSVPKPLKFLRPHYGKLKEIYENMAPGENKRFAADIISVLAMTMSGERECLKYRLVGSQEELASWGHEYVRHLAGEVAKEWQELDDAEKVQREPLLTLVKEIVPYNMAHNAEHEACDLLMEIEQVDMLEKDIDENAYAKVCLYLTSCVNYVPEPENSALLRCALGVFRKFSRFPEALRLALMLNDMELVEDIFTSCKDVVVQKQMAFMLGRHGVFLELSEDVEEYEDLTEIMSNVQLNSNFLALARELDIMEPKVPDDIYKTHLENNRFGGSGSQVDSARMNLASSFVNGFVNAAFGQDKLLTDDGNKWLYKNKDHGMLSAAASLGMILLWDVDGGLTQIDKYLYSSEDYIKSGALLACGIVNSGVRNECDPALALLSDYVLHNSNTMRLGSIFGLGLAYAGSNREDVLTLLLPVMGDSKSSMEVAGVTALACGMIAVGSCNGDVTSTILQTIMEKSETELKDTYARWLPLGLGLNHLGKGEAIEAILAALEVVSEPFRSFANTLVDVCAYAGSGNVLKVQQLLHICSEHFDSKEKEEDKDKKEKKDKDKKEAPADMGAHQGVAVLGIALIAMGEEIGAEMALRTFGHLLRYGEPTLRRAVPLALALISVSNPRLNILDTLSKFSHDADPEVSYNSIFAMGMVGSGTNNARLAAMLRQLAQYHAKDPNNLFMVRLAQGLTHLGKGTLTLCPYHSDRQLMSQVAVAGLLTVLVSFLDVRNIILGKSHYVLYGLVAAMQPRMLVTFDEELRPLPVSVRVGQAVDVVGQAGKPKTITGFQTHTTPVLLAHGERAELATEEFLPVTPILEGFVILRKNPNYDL
# UniProt Q15004: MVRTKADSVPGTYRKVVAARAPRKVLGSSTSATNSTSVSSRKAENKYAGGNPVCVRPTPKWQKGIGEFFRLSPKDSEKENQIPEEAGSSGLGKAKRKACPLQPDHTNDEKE
# UniProt Q13526, whole entry: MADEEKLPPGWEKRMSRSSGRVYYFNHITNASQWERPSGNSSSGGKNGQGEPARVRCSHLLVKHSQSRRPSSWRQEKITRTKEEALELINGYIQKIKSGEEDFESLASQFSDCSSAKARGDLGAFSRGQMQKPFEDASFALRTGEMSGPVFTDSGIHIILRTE
# UniProt Q13573: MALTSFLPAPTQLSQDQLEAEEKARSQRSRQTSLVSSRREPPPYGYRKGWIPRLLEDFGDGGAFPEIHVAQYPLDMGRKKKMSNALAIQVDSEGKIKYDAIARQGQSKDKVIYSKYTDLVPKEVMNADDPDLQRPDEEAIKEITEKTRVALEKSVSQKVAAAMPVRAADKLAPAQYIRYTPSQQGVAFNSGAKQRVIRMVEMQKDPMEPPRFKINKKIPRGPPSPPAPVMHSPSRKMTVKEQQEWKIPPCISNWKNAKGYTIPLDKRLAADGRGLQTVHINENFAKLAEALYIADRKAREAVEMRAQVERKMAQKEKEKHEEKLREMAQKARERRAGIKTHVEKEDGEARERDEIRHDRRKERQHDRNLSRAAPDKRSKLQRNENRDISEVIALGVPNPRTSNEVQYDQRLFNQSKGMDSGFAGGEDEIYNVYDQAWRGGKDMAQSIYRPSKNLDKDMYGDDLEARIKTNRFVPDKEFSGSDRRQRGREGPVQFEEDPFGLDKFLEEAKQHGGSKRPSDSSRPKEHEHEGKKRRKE
# UniProt Q14562: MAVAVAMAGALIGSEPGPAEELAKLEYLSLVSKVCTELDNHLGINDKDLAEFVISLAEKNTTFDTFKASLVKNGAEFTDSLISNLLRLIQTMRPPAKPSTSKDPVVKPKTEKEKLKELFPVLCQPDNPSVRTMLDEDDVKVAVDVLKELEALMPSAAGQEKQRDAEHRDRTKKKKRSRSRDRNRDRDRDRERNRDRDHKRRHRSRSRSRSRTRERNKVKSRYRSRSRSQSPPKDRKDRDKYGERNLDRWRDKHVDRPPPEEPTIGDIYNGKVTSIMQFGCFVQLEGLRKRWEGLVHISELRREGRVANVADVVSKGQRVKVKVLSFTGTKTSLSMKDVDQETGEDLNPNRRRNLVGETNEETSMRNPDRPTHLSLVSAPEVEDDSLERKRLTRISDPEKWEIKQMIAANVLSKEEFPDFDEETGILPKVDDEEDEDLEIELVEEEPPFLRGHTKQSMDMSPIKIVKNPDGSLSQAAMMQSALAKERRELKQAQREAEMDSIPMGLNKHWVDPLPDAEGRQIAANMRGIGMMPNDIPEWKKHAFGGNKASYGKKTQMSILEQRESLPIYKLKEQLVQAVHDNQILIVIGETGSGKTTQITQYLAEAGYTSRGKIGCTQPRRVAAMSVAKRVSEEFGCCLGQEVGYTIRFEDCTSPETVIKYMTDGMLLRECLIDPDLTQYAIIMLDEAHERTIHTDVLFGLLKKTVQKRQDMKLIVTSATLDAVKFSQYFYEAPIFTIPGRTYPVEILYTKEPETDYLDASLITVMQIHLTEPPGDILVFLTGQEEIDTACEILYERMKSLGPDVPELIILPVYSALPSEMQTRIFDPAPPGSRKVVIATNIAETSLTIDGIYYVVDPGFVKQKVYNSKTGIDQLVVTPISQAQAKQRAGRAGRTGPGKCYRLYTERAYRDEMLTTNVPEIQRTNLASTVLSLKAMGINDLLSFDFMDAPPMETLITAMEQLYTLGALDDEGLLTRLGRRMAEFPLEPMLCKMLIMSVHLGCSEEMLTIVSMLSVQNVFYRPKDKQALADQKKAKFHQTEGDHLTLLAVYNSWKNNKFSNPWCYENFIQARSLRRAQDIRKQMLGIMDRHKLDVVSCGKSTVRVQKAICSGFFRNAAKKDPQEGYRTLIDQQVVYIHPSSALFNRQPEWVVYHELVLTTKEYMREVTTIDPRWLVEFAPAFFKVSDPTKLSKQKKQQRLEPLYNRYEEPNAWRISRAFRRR
# UniProt Q14534: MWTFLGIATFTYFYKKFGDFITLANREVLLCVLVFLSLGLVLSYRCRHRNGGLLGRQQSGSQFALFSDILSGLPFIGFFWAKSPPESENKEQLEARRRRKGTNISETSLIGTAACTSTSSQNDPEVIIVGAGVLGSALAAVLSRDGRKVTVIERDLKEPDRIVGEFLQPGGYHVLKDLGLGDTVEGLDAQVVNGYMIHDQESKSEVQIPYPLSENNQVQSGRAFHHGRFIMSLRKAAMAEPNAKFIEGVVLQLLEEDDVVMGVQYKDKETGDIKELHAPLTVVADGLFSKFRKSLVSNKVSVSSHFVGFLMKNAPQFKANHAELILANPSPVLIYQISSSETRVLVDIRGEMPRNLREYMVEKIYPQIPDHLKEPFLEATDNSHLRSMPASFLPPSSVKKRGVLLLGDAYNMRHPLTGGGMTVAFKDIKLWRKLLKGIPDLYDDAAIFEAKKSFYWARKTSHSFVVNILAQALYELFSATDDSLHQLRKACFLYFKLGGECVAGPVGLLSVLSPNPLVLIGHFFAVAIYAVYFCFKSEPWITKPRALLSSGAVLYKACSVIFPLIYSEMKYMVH
# UniProt Q14767: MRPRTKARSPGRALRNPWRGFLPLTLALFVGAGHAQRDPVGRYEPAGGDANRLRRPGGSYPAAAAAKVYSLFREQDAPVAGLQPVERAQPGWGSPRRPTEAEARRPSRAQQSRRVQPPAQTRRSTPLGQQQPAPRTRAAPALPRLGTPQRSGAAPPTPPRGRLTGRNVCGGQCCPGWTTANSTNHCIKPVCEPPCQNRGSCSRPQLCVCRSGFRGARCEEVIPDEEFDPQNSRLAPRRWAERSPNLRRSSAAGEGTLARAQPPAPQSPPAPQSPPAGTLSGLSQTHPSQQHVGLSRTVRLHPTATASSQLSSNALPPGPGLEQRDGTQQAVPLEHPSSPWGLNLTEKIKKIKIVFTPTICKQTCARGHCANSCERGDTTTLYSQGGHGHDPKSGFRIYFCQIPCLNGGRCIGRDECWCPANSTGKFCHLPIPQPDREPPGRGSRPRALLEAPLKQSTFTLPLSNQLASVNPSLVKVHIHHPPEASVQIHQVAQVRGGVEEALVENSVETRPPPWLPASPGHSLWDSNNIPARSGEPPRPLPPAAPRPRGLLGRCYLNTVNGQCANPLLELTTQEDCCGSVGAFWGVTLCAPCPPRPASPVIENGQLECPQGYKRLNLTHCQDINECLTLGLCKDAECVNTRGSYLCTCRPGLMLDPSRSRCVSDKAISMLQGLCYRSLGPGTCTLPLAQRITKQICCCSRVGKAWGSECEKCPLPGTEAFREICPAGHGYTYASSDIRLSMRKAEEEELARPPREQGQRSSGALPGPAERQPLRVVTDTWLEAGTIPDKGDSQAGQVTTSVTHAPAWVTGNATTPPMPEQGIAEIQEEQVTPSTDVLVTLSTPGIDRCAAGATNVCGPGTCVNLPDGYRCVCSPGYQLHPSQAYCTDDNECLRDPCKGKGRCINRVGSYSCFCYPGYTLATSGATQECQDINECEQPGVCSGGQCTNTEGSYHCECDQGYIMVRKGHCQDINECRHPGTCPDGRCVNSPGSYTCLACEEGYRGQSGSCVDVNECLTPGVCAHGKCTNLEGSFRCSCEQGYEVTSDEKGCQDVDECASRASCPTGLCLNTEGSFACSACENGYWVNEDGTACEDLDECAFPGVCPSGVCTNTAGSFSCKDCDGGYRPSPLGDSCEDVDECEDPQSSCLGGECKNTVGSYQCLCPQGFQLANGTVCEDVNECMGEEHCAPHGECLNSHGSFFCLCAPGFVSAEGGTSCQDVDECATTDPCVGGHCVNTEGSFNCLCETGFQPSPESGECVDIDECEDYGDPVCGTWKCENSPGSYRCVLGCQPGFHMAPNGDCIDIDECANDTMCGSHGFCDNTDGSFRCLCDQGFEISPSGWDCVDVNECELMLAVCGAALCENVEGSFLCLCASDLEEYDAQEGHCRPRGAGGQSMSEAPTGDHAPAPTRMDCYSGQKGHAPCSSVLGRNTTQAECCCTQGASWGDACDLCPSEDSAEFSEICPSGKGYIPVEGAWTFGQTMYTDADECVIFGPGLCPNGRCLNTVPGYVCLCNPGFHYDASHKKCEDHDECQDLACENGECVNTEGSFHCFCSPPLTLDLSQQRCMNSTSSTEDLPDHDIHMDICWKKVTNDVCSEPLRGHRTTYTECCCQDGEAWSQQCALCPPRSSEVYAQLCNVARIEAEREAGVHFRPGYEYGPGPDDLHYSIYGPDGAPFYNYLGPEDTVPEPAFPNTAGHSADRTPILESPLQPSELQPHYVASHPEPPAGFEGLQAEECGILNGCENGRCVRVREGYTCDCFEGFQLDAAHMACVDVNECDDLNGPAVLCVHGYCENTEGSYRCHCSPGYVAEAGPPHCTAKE
# UniProt Q13561, whole entry: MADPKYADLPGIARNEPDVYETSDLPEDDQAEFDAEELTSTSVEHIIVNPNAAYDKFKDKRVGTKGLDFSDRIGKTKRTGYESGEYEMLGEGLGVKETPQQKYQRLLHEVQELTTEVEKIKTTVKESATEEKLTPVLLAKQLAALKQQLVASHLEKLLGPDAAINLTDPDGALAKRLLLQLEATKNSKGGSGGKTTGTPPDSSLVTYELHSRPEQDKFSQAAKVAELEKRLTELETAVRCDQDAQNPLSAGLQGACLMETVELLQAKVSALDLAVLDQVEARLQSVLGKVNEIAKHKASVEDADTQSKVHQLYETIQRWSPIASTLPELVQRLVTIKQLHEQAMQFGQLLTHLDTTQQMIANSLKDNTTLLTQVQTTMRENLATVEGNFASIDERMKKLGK
# Some of the results follow. Small differences around the control level are noise.
# Compound: Cc1nc(Nc2ncc(C(=O)Nc3c(C)cccc3Cl)s2)cc(N2CCN(CCO)CC2)n1 [dasatinib]
# Assay: log2 fold change of tryptic peptide abundance, ligand vs vehicle (limited proteolysis) (log2 ratio); higher = more trypsin-susceptible (destabilized)
# Details: ligand concentration: 5 uM; sample: K562 cleared lysate
row,Target,log2 fold change
1,"UniProt Q13946 (peptide sequence: YHLGVSPLCDR, peptide start residue: 394)",0.759
2,"NPAT (peptide sequence: SSQLLSQDTSLTGKPSK, peptide start residue: 530) (UniProt Q14207)",0.465
3,"KRR1 (peptide sequence: LGALTAEEIALK, peptide start residue: 358) (UniProt Q13601)",0.0885
4,"PSMD2 (peptide sequence: SETELKDTYAR, peptide start residue: 546) (UniProt Q13200)",-1.21
5,"IFT88 (peptide sequence: MFSNAGILK, peptide start residue: 228) (UniProt Q13099)",-0.275
6,"PLS1 (peptide sequence: EASLPLPGYK, peptide start residue: 42) (UniProt Q14651)",0.341
7,"MAP7 (peptide sequence: PASAISGQNNNHSGNKPDPPPVLR, peptide start residue: 39) (UniProt Q14244)",0.381
8,"MEF2D (peptide sequence: ASEELDGLFR, peptide start residue: 120) (UniProt Q14814)",-0.34
9,"NCOA4 (peptide sequence: AEQQIKDNLR, peptide start residue: 37) (UniProt Q13772)",-0.812
10,"UniProt Q15004 (peptide sequence: ADSVPGTYR, peptide start residue: 6)",0.0904
11,"LPIN1 (peptide sequence: LCEVVDHVFPLLK, peptide start residue: 842) (UniProt Q14693)",-0.509
12,"PIN1 (peptide sequence: VYYFNHITNASQWER, peptide start residue: 22) (UniProt Q13526)",0.189
13,"SNW1 (peptide sequence: GPPSPPAPVMHSPSR, peptide start residue: 221) (UniProt Q13573)",0.399
14,"GTF2H2 (peptide sequence: ICGLTLVSAPHLAR, peptide start residue: 307) (UniProt Q13888)",-0.538
15,"UniProt Q14562 (peptide sequence: TMLDEDDVKVAVDVLK, peptide start residue: 132)",-0.621
16,"DDX39B (peptide sequence: DFLLKPELLR, peptide start residue: 48) (UniProt Q13838)",-0.118
17,"CKAP5 (peptide sequence: WNFTTPRDEYIEQLK, peptide start residue: 1183) (UniProt Q14008)",0.764
18,"OS9 (peptide sequence: LPAGAIHFQR, peptide start residue: 75) (UniProt Q13438)",0.397

# 3 entries from above, reformatted.
row	Target	log2 fold change
1	UniProt Q13946 (peptide sequence: YHLGVSPLCDR, peptide start residue: 394)	0.759
2	NPAT (peptide sequence: SSQLLSQDTSLTGKPSK, peptide start residue: 530) (UniProt Q14207)	0.465
3	KRR1 (peptide sequence: LGALTAEEIALK, peptide start residue: 358) (UniProt Q13601)	0.0885

# Remaining list, next part.

row,Target,log2 fold change
1,"SQLE (peptide sequence: ALLSSGAVLYK, peptide start residue: 546) (UniProt Q14534)",-0.194
2,"AAMP (peptide sequence: AVVGYEDGTIR, peptide start residue: 230) (UniProt Q13685)",0.261
3,"UniProt Q14289 (peptide sequence: SNFELLEK, peptide start residue: 199)",0.196
4,"XRCC4 (peptide sequence: FILVLNEKK, peptide start residue: 180) (UniProt Q13426)",0.224
5,"UniProt Q14767 (peptide sequence: GSCSRPQLCVCR, peptide start residue: 199)",0.159
6,"SPTAN1 (peptide sequence: SQLLGSAHEVQR, peptide start residue: 1226) (UniProt Q13813)",-0.366
7,"IQGAP2 (peptide sequence: TLEQTGHVSSENK, peptide start residue: 1380) (UniProt Q13576)",0.933
8,"VEZF1 (peptide sequence: TCMSEETSNQK, peptide start residue: 326) (UniProt Q14119)",0.718
9,"DCTN2 (peptide sequence: TTGTPPDSSLVTYELHSRPEQDK, peptide start residue: 195) (UniProt Q13561)",0.226
10,"ITGB3BP (peptide sequence: ELENLIGISCASHFLKR, peptide start residue: 118) (UniProt Q13352)",-0.239
11,"GRB10 (peptide sequence: LLCAEDEQTR, peptide start residue: 378) (UniProt Q13322)",-0.31
12,"EIF4EBP1 (peptide sequence: KFLMECR, peptide start residue: 57) (UniProt Q13541)",-0.0935
13,"CASP8 (peptide sequence: SKPRGYCLIINNHNFAK, peptide start residue: 230) (UniProt Q14790)",0.631
14,"UniProt Q14094 (peptide sequence: KVEEMEVDDFYDGIKR, peptide start residue: 324)",-0.536
15,"EIF4EBP2 (peptide sequence: KHAVGDDAQFEMDI, peptide start residue: 107) (UniProt Q13542)",0.105
16,"ADAM9 (peptide sequence: NQANPSRQPGSVPR, peptide start residue: 742) (UniProt Q13443)",-0.858
17,"HNRNPD (peptide sequence: HSEAATAQREEWK, peptide start residue: 86) (UniProt Q14103)",0.0996
18,"UniProt Q13361 (peptide sequence: LVCKEHEAMKDELCR, peptide start residue: 127)",0.397
